These are yes or no findings as the source states them, for the method shown. Binding seen in cells or lysates may run through a third protein. Some results given as binding are weak or reduced against the parent protein; the word gives no strength. Tags and fused reporters may be left off the sequences shown.
Target: T1, GST-tagged ARK5 wild type (AMPK-related protein kinase 5) (human) (UniProt O60285)
T1 sequence: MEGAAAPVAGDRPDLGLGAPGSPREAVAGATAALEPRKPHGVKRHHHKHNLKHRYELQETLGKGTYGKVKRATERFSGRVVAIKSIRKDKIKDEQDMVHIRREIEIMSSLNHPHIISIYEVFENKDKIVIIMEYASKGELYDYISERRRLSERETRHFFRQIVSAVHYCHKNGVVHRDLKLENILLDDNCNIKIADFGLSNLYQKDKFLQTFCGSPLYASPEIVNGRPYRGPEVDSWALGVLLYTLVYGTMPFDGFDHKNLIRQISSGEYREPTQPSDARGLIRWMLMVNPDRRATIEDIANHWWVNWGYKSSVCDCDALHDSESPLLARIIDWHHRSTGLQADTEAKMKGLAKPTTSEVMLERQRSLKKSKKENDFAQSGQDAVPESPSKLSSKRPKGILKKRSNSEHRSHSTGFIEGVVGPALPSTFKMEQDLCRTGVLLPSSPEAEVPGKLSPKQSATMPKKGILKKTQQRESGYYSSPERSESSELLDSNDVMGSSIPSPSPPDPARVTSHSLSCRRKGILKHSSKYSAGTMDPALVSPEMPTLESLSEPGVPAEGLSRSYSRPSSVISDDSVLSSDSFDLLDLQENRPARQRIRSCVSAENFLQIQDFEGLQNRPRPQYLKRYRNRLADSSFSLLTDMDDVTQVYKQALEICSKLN
Assay: co-IP; in vivo co-IP: U2OS cells cotransfected with GST-ARK5 (WT or KD) and FLAG-hnRNP A1 (WT, fragments or mutants); lysate in co-IP buffer (25 mM Tris-HCl pH 7.4, 150 mM NaCl, 0.5% Triton X-100), GSH Sepharose beads overnight at 4 °C, immunoblotting

Chains of the proteins cited; added tags and fusions are not shown. Lines headed by an entry give the natural chain unless they say otherwise; changes in a name come on top. A line that says so, or that is headed by a name, gives the form on record, which may keep a tag or linker.
FLAG-tagged hnRNP A1 fragment 2 + 3 (87–320 aa) (P09651-2, form named): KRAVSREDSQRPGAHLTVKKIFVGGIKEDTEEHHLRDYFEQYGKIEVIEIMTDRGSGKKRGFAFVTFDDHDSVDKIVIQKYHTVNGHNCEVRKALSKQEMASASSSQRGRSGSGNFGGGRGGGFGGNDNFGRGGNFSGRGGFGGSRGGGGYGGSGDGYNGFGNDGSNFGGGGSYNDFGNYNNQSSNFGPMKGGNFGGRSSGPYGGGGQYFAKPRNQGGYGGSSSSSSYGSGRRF
FLAG-tagged hnRNP A1 fragment 3 (212–320 aa) (P09651-2, form named): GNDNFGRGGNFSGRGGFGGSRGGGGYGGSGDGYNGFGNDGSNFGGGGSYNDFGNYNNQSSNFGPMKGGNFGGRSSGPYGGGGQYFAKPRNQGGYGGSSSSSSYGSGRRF

binding	Substance
binds	FLAG-tagged hnRNP A1 fragment 2 + 3 (87–320 aa) (from UniProt P09651-2 87-320) (domain or fragment)
binds	FLAG-tagged hnRNP A1 fragment 3 (212–320 aa) (from UniProt P09651-2 212-320) (domain or fragment)

Source: article PMC9478406
